These are yes or no findings as the source states them, for the method shown. In cells and extracts the contact can be indirect. Here binding means that the protein was enriched with, or labelled near, the bait; the list need not be complete. Where a sequence is shown, tags or fusion partners need not be part of it.

T1: GFP-tagged RRP41 (Arabidopsis thaliana) (UniProt Q9SP08)
T1 sequence: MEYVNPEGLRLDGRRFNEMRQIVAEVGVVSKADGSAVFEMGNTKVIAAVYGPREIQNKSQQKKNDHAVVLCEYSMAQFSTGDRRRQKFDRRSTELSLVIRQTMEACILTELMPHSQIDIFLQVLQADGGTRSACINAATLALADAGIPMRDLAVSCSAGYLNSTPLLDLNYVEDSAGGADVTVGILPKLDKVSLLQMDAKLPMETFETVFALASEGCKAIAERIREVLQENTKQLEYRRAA

T2: myc-tagged RRP41 (Arabidopsis thaliana) (UniProt Q9SP08)
T2 sequence: T1 sequence

B1: RRP44/DIS3 (enzyme, UniProt Q9SHL7 1-933)
chain: MLQSKVFNKKTRGGRIQKQVREVYLRDDIYCGAFSCKSCDSSAARLSSSKIIVVDTNVVLHQIDLLENKAIDTVVVLSVVLDEVKNRNRSVYNRIRLLCSNPARQFYVFSNHVHKDTYVQAMEKESANDHNDRAIRVATLWYQKHLGDTSQVLLVTNDRENKRKATEEGISAETIEAYVKSLGQPELLDLLAQPTNEDITMEDADDSRPSKRKLIYQEHKPMSEITAGLHRGIYHQGKLRVNRFNPYEAYVGSESIGEEIIIYGRSNMNRAFDGDIVAVELLPRDQWQDEKALSIAEEDDEEDDTVHLAPDNVDDAPRTSNLSHETSGDKNAAPVRPSGRVVGVIRRNWHSYCGSLEPMSLPAGSGGTAHALFVSKDRRIPKIRINTRQLQNLLDMRIVVAVDSWDRQSRYPSGHYVRPIGKIGDKETETEVVLIENDVDYSPFSSQVLACLPPLPWSVSSEDVSNPVRQDLRHLLVFSVDPPGCKDIDDALHCTSLPNGNFELGVHIADVTNFVHPGTPLDDEASKRGTSVYLVERRIDMLPKPLTEDICSLRADVERLAFSVIWEMSPDAEIISTRFTKSIIKSSAALSYIEAQARMDDSRLTDSLTTDLRNMNTLAKIMRQRRIDRGALTLASAEVKFDIDPENHDPLNIGMYQILEANQMVEEFMLAANVSVAGQILKLFPSCSLLRRHPTPTREMLEPLLRTAAAIGLTLDVSSSKALADSLDRAVGEDPYFNKLIRILATRCMTQAVYFCSGDLSPPEYHHYGLAAPLYTHFTSPIRRYADVFVHRLLAASLGIYKLPTVFQDRPQLTSVADNLNYRHRNAQMAGRASVELYVLIYFRTRPTDEEARVVKIRSNGFIVFVPKYGIEGPVYLTGKGEKGAGDWYVDEEKQKIVKMDGSLSYSVLQTVKIHMEVVEPQPNRPKLQLTLL
B2: HEN2 (protein, UniProt Q9ZVW2 1-995)
chain: MSAQMEEPETLGKRKESESSKLRSDETPTPEPRTKRRSLKRACVHEVAVPNDYTPTKEETIHGTLDNPVFNGDMAKTYPFKLDPFQSVSVACLERKESILVSAHTSAGKTAVAEYAIAMAFRDKQRVIYTSPLKALSNQKYRELQHEFKDVGLMTGDVTLSPNASCLVMTTEILRAMLYRGSEVLKEVAWVIFDEIHYMKDRERGVVWEESIIFLPPAIKMVFLSATMSNATEFAEWICYLHKQPCHVVYTDFRPTPLQHYAFPMGGGGLYLVVDDNEQFREDSFVKMQDTFPKPKSNDGKKSANGKSGGRGAKGGGGPGDSDVYKIVKMIMERKFEPVIIFSFSRRECEQHALSMSKLDFNTDEEKEVVEQVFNNAMQCLNEEDRSLPAIELMLPLLQRGIAVHHSGLLPVIKELVELLFQEGLVKALFATETFAMGLNMPAKTVVFTAVKKWDGDSHRYIGSGEYIQMSGRAGRRGKDERGICIIMIDEQMEMNTLRDMMLGKPAPLLSTFRLSYYTILNLLSRAEGQFTAEHVIRHSFHQFQHEKALPDIGNKVSKLEEEAAILNASGEAEVAEYHNLQFDIAKHEKKLMSEIIRPERVLCFLDTGRLVKIREGGTDWGWGVVVNVVKNSSVGTGSASSHGGGYIVDTLLHCSTGFSENGAKPKPCPPRAGEKGEMHVVPVQLPLISALSRLRISVPSDLRPVEARQSILLALQELSSRFPLGFPKLHPVKDMNIQDTEIVDLVSQIEEVEQKLLAHPMHKSEDDQQIKSFQRKAEVNYEIQQLKSKMRDSQLQKFRDELKNRSRVLKKLGHIDADGVVQVKGRAACLIDTGDELLVTELMFNGTFNDLDHHQVAALASCFIPVDKSNEQVNLRNELTKPLQQLQDSARKIAEIQHECKLEIDVEEYVESTIRPFLMDVIYSWSKGASFAEIIQMTDIFEGSIIRSARRLDEFLNQLRAAAEAVGESSLESKFAAASESLRRGIMFANSLYL
B3: AtMTR4 (protein, UniProt Q9XIF2 1-988)
chain: MGSVKRKSVEESSDSAPPQKVQREDDSTQIINEELVGCVHDVSFPENYVPLAPSVHNKPPAKDFPFTLDSFQSEAIKCLDNGESVMVSAHTSAGKTVVASYAIAMSLKENQRVIYTSPIKALSNQKYRDFKEEFSDVGLMTGDVTIDPNASCLVMTTEILRSMQYKGSEIMREVAWIIFDEVHYMRDSERGVVWEESIVMAPKNSRFVFLSATVPNAKEFADWVAKVHQQPCHIVYTDYRPTPLQHYVFPAGGNGLYLVVDEKSKFHEDSFQKSLNALVPTNESDKKRDNGKFQKGLVIGKLGEESDIFKLVKMIIQRQYDPVILFSFSKKECEALAMQMSKMVLNSDDEKDAVETIFASAIDMLSDDDKKLPQVSNILPILKRGIGVHHSGLLPILKEVIEILFQEGLIKCLFATETFSIGLNMPAKTVVFTNVRKFDGDKFRWLSSGEYIQMSGRAGRRGIDKRGICILMVDEKMEPAVAKSMLKGSADSLNSAFHLSYNMLLNQLRCEEGDPENLLRNSFFQFQADRAIPDLEKQIKSLEEERDSLVIEEEESLKNYYNLILQYKSLKKDIREIVFTPKYCLPFLLPNRAVCLDCTNDDEEPQSFSIEDQDTWGVIMKFNKVKSLSEDDDSRRPEDANYTVDVLTRCMVSKDGVGKKKVKAVPIKERGEPVVVTVPLSQIKSLSSAIMNIPKDLVPLEARENALKKVSELLSRHPDGIPLDPEVDMKIKSSSYKKTVRRLEALENLFEKHKIAKSPLITEKLKVLQMKEELIAKIKSLKKTVRSSTALAFKDELKARKRVLRRLGYITSDNVVELKGKVACEISSAEELTLTELMFSGIFKDAKVEELVSLLSCFVWRERLPDAAKPREELDLLFIQLQDTARRVAEVQLDCKVEIDVESFVQSFRPDIMEAVYAWAKGSKFYEVMEIARVFEGSLIRAIRRMEEVLQQLIVAAKSIGETQLEAKLEEAVSKIKRDIVFAASLYL

The target of the first test is T1, GFP-tagged RRP41 (Arabidopsis thaliana). In words: affinity purification with mass spectrometry; RRP41-myc or RRP41-GFP extracted from flowers of stable Arabidopsis transformants, held on magnetic microparticles coated with monoclonal myc or GFP antibodies (MACS, Miltenyi), SDS omitted from washing buffers; nano LC-MS/MS; three biological repeats crossed, proteins of mock IPs excluded.
As for B1, the binding result was “binds”.

With B2, the binding result is given as “binds”.

Turning to B3, the binding entry was “binds”.

The next test concerns the target T2, myc-tagged RRP41 (Arabidopsis thaliana). The description is as above.
Turning to B1, the binding result is “binds”.

B2: the binding result is given as “binds”.

Turning to B3, the binding result is “binds”.

These data come from publication PMC4140647.
